Some entries share one result that the patent states for a list of compounds. Some ranges recur; such a range may be that of the whole group of compounds.
Columns and labels:
[1] = system: anti-SRBC IgM secreting plasma cells (antibody-forming cells, AFC); type: in vivo; conditions: administrated doses 2.5-10 mg/kg
From the text: Humoral-mediated immune response is routinely measured using the antibody-forming cell (AFC) assay. Primarily used for evaluating humoral immunity, this assay, in fact, evaluates overall immune competence including T- and B-cell function, antigen processing and presentation. Sheep Red Blood Cells (SRBC) are the most common T-dependent antigen used for this assay.
Primary IgM response after SRBC administration was quantitatively estimated using a modified hemolytic plaque-forming cell assay […]
For induction of a primary humoral PFC response, C57BL/6J mice were immunized intraperitoneally with 0.1 ml of a 5% suspension of SRBC, containing 1×10^8 cells. […] Individual spleen cell suspensions were washed three times with Hank's BSS, nucleated cells number was determined with a haemocytometer, viability was assessed by exclusion of trypan blue and adjusted to 1×10^7 viable cells per ml in Medium 199 containing Earle's salts and L-glutamine.
For the PFC assay, suspensions containing 1×10^6 spleen cells, 1×10^9 SRBCs and guinea pig serum (diluted 1:10, a source of complement), were introduced into a Cunningham chambers (100 μl volume) and incubated for 1 h at 37° C. The number of hemolytic plaques, produced by anti-SRBC IgM secreting plasma cells, was counted using a light microscope, and the number of PFC determined for each mice was expressed per 1×10^6 spleen cells and per whole spleen.

[2] = Administered dose related to LD50; conditions: doses 2.5-10 mg/kg
[3] = system: cellular immune response (T-cells response) to SRBC; assay: Delayed Type Hypersensitivity test (DTH), foot pad edema after SRBC challenge; design: species or system mice; conditions: mouse, in vivo
Method: The method of Lagrange et al. was used. Mice were sensitized intravenously (iv) with 10^5 SRBC in saline. After 4 days, the mice were given eliciting dose of the antigen: 10^8 SRBS in 20 mcl of sterile saline into right hind paw, left hind paw was injected with 20 mcl of sterile saline. In 24 hours after challenge, the foot pad edema volume was measured using a caliper. The difference in volume (mcl) between the right paw (antigen-injected) and left paw (saline-injected) is calculated (Δ) and used as edema volume.

Row | SMILES | Antibodies formation in spleen and lymph nodes increased, compared to control groups [1] | Administered dose as % of LD50 [2] | Cellular immune response increased [3]
1 | CCOC(=O)C1=C(C)OC(OC)C1c1ccccc1OC (centres unmarked) [Example 6] | 300-500% | 0.5-1 % of LD50 | –
2 | COC1OC(C)=C(C(=O)[O-])C1CC(C)C.[Li+] (centres unmarked) [Example 10] | 300-500% | 0.5-1 % of LD50 | 2-3.5 times

From patent US20080287532A1, “OXACYCLOPENTENE-2 DERIVATIVES” (priority 2007, published 2008)
